# Assay results published in the supplement of paper PMC10032668.
# Amino acid sequences for entries named in this document (tags omitted).
# COX6B1, P14854, UniProt P14854, whole entry: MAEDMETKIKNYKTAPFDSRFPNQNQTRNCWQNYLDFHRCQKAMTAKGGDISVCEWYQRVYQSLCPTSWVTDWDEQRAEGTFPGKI
# DNM1L, O00429, UniProt O00429, whole entry: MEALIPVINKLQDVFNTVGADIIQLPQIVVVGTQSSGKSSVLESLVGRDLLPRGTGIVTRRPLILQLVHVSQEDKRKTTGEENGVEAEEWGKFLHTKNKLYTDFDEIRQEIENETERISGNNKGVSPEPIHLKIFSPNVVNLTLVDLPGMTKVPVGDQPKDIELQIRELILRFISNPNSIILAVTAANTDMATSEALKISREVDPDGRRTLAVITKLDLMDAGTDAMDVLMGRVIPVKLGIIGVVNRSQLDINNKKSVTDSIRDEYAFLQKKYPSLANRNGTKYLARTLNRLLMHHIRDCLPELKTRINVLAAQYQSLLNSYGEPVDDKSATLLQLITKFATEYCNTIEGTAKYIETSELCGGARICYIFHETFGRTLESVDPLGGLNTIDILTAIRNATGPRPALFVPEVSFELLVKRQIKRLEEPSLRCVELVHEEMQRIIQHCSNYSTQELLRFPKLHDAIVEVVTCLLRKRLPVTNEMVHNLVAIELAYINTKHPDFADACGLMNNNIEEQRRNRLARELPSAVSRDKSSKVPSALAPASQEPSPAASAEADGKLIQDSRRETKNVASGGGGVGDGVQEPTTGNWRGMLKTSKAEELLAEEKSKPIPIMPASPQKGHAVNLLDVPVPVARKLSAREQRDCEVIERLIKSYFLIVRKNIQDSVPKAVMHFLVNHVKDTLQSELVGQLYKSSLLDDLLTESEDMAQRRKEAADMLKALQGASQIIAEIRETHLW
# EIF2S2, P20042, UniProt P20042, whole entry: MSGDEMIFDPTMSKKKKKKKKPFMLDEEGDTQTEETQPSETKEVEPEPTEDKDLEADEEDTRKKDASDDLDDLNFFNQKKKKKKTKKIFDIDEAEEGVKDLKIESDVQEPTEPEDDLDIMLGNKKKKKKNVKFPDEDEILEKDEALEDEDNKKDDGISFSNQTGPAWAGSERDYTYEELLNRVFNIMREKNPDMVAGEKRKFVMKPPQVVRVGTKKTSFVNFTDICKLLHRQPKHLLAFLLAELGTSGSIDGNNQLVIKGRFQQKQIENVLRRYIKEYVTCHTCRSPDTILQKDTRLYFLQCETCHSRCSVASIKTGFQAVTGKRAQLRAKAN
# MORF4L2, Q15014, UniProt Q15014, whole entry: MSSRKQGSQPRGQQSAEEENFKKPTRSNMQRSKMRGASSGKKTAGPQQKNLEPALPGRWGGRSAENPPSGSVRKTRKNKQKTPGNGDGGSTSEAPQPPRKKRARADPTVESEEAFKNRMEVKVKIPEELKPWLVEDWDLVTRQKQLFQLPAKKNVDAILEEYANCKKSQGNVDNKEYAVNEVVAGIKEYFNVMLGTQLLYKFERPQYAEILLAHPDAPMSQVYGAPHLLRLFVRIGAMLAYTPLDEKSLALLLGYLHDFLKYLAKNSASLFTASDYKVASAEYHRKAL
# PABPC4, Q13310, UniProt Q13310, whole entry: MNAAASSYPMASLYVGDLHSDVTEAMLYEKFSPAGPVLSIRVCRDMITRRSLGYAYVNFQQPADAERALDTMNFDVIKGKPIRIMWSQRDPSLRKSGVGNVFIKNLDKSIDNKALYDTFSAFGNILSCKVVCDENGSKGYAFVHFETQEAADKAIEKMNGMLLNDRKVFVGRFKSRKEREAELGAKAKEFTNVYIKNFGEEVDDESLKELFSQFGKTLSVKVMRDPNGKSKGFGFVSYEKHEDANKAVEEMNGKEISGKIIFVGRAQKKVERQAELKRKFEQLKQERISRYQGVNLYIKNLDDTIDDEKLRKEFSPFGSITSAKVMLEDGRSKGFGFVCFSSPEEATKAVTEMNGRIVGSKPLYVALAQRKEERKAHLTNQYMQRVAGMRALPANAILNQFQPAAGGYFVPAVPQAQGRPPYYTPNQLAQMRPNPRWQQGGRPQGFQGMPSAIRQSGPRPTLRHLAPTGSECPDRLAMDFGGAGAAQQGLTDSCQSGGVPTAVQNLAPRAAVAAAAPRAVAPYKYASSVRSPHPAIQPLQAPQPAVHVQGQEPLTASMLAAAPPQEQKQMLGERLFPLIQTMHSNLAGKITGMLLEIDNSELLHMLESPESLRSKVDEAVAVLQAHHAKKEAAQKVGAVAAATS
# POM121C, A8CG34, UniProt A8CG34, whole entry: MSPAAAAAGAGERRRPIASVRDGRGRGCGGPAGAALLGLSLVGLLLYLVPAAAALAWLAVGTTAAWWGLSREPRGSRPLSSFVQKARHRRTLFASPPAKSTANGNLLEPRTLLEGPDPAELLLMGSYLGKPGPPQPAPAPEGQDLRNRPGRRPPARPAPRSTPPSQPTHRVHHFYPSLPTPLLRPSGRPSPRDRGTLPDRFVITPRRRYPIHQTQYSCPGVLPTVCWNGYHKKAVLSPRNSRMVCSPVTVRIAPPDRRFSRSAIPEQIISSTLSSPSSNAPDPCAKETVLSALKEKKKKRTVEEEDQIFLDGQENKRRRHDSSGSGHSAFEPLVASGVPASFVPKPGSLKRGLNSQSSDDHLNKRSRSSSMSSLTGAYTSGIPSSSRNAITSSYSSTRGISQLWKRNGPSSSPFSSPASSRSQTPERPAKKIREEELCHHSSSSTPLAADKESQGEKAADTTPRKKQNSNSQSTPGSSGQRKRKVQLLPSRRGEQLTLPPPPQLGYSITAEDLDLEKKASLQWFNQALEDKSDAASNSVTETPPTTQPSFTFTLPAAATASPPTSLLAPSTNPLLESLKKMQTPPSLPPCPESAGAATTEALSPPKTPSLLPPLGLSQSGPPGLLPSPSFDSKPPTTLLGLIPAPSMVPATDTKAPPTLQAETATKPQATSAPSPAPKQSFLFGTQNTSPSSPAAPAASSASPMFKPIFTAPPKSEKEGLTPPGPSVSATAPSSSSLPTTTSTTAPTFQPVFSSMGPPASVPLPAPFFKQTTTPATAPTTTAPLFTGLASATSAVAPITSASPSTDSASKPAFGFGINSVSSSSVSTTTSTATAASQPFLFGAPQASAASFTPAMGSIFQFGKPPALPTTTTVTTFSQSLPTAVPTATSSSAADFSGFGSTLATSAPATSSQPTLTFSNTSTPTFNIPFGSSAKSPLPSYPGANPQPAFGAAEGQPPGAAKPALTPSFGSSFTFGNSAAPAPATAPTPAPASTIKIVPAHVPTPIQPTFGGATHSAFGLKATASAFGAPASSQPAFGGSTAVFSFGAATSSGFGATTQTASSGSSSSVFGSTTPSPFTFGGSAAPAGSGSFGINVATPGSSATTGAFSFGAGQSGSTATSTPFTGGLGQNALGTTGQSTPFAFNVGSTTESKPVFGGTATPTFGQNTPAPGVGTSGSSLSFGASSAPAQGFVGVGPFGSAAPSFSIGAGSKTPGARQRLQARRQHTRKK
# Some of the results follow. Only hits are listed; about a third recur on repeated control peptides.
# Legend:
# Assay in all cases: PRISMA enrichment of interactor (LFQ) in peptide spot vs all other peptide spots (log2 fold change); higher = stronger / more specific binding of the interactor to the peptide
# AGPAT5, Q9NUQ2 = target: AGPAT5, Q9NUQ2
# Protocol: (§1)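 PRISMA: 15-aa overlapping tiles (offset 8 aa) of 60 microproteins, plus SOS1/GLUT1 control peptides, were spot-synthesized on cellulose membranes in triplicate. Membranes were incubated with benzonase-treated HEK293T lysate, and bound proteins were identified by LC-MS/MS with LFQ. Enrichment is the log2 fold change of each protein in one spot versus all other spots. Only interactors passing the significance cutoff are listed.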
# COX6B1, P14854 = target: COX6B1, P14854
# Protocol: as §1
# DDX42, Q86XP3 = target: DDX42, Q86XP3
# Protocol: as §1
# DNM1L, O00429 = target: DNM1L, O00429
# Protocol: as §1
# EHHADH, Q08426 = target: EHHADH, Q08426
# Protocol: as §1
# FAM120A, Q9NZB2 = target: FAM120A, Q9NZB2
# Protocol: as §1
# GPD1L, Q8N335 = target: GPD1L, Q8N335
# Protocol: as §1
# PDP1, Q9P0J1 = target: PDP1, Q9P0J1
# Protocol: as §1
# RBM38, Q9H0Z9 = target: RBM38, Q9H0Z9
# Protocol: as §1
# ZNF22, P17026 = target: ZNF22, P17026
# Protocol: as §1
# ZNF616, Q08AN1 = target: ZNF616, Q08AN1
# Protocol: as §1
# AHCTF1, Q8WYP5 = target: AHCTF1, Q8WYP5
# Protocol: as §1
# C19orf53, Q9UNZ5 = target: C19orf53, Q9UNZ5
# Protocol: as §1
# CBSL = target: CBSL
# Protocol: as §1
# CDK11A, Q9UQ88 = target: CDK11A, Q9UQ88
# Protocol: as §1
# CDKN2AIP, Q9NXV6 = target: CDKN2AIP, Q9NXV6
# Protocol: as §1
# CGN, Q9P2M7 = target: CGN, Q9P2M7
# Protocol: as §1
# CHCHD3, Q9NX63 = target: CHCHD3, Q9NX63
# Protocol: as §1
# CKAP4, Q07065 = target: CKAP4, Q07065
# Protocol: as §1
# CNN3, Q15417 = target: CNN3, Q15417
# Protocol: as §1
# CSTF3, Q12996 = target: CSTF3, Q12996
# Protocol: as §1
# DDX1, Q92499 = target: DDX1, Q92499
# Protocol: as §1
# EIF2S2, P20042 = target: EIF2S2, P20042
# Protocol: as §1
# FIS1, Q9Y3D6 = target: FIS1, Q9Y3D6
# Protocol: as §1
# FUBP3, Q96I24 = target: FUBP3, Q96I24
# Protocol: as §1
# HNRNPL, P14866 = target: HNRNPL, P14866
# Protocol: as §1
# HP1BP3, Q5SSJ5 = target: HP1BP3, Q5SSJ5
# Protocol: as §1
# ILF3, Q12906 = target: ILF3, Q12906
# Protocol: as §1
# LMNB1, P20700 = target: LMNB1, P20700
# Protocol: as §1
# MCRIP2, Q9BUT9 = target: MCRIP2, Q9BUT9
# Protocol: as §1
# MORF4L2, Q15014 = target: MORF4L2, Q15014
# Protocol: as §1
# MTCH2, Q9Y6C9 = target: MTCH2, Q9Y6C9
# Protocol: as §1
# MXRA7, P84157 = target: MXRA7, P84157
# Protocol: as §1
# NOM1, Q5C9Z4 = target: NOM1, Q5C9Z4
# Protocol: as §1
# PABPC4, Q13310 = target: PABPC4, Q13310
# Protocol: as §1
# PCID2, Q5JVF3 = target: PCID2, Q5JVF3
# Protocol: as §1
# POM121C, A8CG34 = target: POM121C, A8CG34
# Protocol: as §1
# PRRC2A, P48634 = target: PRRC2A, P48634
# Protocol: as §1
# PTOV1, Q86YD1 = target: PTOV1, Q86YD1
# Protocol: as §1
# RBM15, Q96T37 = target: RBM15, Q96T37
# Protocol: as §1
# RBMS1, P29558 = target: RBMS1, P29558
# Protocol: as §1
binder,measurement,setting,value
RLSFWSICRSLHHGP [PSMB8-AS1],PRISMA enrichment of interactor (log2),"AGPAT5, Q9NUQ2",4.82
same,PRISMA enrichment of interactor (log2),"COX6B1, P14854",5.4
same,PRISMA enrichment of interactor (log2),"DDX42, Q86XP3",8.89
same,PRISMA enrichment of interactor (log2),"DNM1L, O00429",7.28
same,PRISMA enrichment of interactor (log2),"EHHADH, Q08426",5.05
same,PRISMA enrichment of interactor (log2),"FAM120A, Q9NZB2",4.69
same,PRISMA enrichment of interactor (log2),"GPD1L, Q8N335",4.38
same,PRISMA enrichment of interactor (log2),"PDP1, Q9P0J1",10.3
same,PRISMA enrichment of interactor (log2),"RBM38, Q9H0Z9",5.05
same,PRISMA enrichment of interactor (log2),"ZNF22, P17026",4.31
same,PRISMA enrichment of interactor (log2),"ZNF616, Q08AN1",6.17
SPADVAGPGLAMEKA [RP11-432J24.5_2],PRISMA enrichment of interactor (log2),"AHCTF1, Q8WYP5",5.56
same,PRISMA enrichment of interactor (log2),"C19orf53, Q9UNZ5",5.8
same,PRISMA enrichment of interactor (log2),CBSL,4.14
same,PRISMA enrichment of interactor (log2),"CDK11A, Q9UQ88",5.79
same,PRISMA enrichment of interactor (log2),"CDKN2AIP, Q9NXV6",4.07
same,PRISMA enrichment of interactor (log2),"CGN, Q9P2M7",6.75
same,PRISMA enrichment of interactor (log2),"CHCHD3, Q9NX63",4.81
same,PRISMA enrichment of interactor (log2),"CKAP4, Q07065",8.58
same,PRISMA enrichment of interactor (log2),"CNN3, Q15417",4.6
same,PRISMA enrichment of interactor (log2),"CSTF3, Q12996",5.07
same,PRISMA enrichment of interactor (log2),"DDX1, Q92499",6.72
same,PRISMA enrichment of interactor (log2),"EIF2S2, P20042",6.62
same,PRISMA enrichment of interactor (log2),"FIS1, Q9Y3D6",9.27
same,PRISMA enrichment of interactor (log2),"FUBP3, Q96I24",4.49
same,PRISMA enrichment of interactor (log2),"HNRNPL, P14866",4.87
same,PRISMA enrichment of interactor (log2),"HP1BP3, Q5SSJ5",7.08
same,PRISMA enrichment of interactor (log2),"ILF3, Q12906",7.28
same,PRISMA enrichment of interactor (log2),"LMNB1, P20700",4.73
same,PRISMA enrichment of interactor (log2),"MCRIP2, Q9BUT9",7.44
same,PRISMA enrichment of interactor (log2),"MORF4L2, Q15014",6.19
same,PRISMA enrichment of interactor (log2),"MTCH2, Q9Y6C9",6.25
same,PRISMA enrichment of interactor (log2),"MXRA7, P84157",3.75
same,PRISMA enrichment of interactor (log2),"NOM1, Q5C9Z4",6.55
same,PRISMA enrichment of interactor (log2),"PABPC4, Q13310",4.61
same,PRISMA enrichment of interactor (log2),"PCID2, Q5JVF3",4.59
same,PRISMA enrichment of interactor (log2),"POM121C, A8CG34",7.4
same,PRISMA enrichment of interactor (log2),"PRRC2A, P48634",5.77
same,PRISMA enrichment of interactor (log2),"PTOV1, Q86YD1",8.56
same,PRISMA enrichment of interactor (log2),"RBM15, Q96T37",5.16
same,PRISMA enrichment of interactor (log2),"RBMS1, P29558",4.83

# Reprinted from the results shown (2 entries):
binder,measurement,setting,value
SPADVAGPGLAMEKA [RP11-432J24.5_2],PRISMA enrichment of interactor (log2),"MORF4L2, Q15014",6.19
same,PRISMA enrichment of interactor (log2),"MTCH2, Q9Y6C9",6.25
